Experimental data: PubChem BioAssay AID2685 (National Center for Advancing Translational Sciences (NCATS), 2010)
The other results are listed elsewhere or left out. The main result of the screen is listed elsewhere. These columns were measured beside it and carry no call. Most of these compounds were active or inconclusive in the main read-out, so they are no random draw. Potencies come from curve fits of mixed quality, noted in brackets.

Test: qHTS Assay for Lipid Storage Modulators in Drosophila S3 Cells;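 as to cell number change: cells counted by Cell Tracker Red CMTPX staining in the red channel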
Conditions: BODIPY lipid droplet fluorescence, 18-24 h; for cell number change: measured here: cell count max response, cells fed with added oleic acid
Summary of the method: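 Drosophila S3 cells loaded with oleic acid (400 uM, as added) and compounds at several concentrations; lipid droplets imaged by 488-nm laser-scanning cytometry, 500–530 nm intensity and object ratio to cell channel. Percent activity normalized to 20 uM Triacsin C.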

[1] = measured here: lipid fluorescence (Fed channel) AC50, cells fed with added oleic acid
[2] = measured here: cell number channel AC50, cells fed with added oleic acid

SMILES	cell number change [%]	AC50 [1]	AC50 [2]
Cc1ccc(C2=NCCn3nc4cc([N+](=O)[O-])ccc4c32)cc1	19.7	3260 nM [rising, partial curve]	–
CCC(=O)Nc1ccc(C(=O)CSc2nnc(CNc3ccc(Cl)cc3)o2)cc1OC	23.5	–	–
NS(=O)(=O)c1ccc(NS(=O)(=O)c2ccc(NC(=O)C3CC3)cc2)cc1	27.6	29100 nM [rising, single point]	184 nM [rising, full curve, poor fit]
O=C(COC(=O)CNC(=O)c1ccccc1F)Nc1ccc2[nH]c(=O)[nH]c2c1	-27.1	10300 nM [falling, single point]	3660 nM [falling, single point]
Nc1ncncc1-c1ccc(Cl)cc1	–	92 nM [falling, full curve, poor fit]	–
O=[N+]([O-])c1cccc(-c2nnc3c4ccccc4c4ccccc4n23)c1	43.6	–	4610 nM [rising, partial curve]
COC(=O)/C(=C\c1ccc2c(c1)c1ccccc1n2C)NC(=O)c1ccccc1	-16.2	–	–
COc1cccc(Cc2n[nH]c(=S)n2Cc2ccco2)c1	9.81	20600 nM [rising, single point]	–
COC(=O)C(CO)Nc1ncnc2onc(-c3ccc(F)cc3)c12 (stereo not drawn)	–	–	2310 nM [falling, partial curve]
Cn1c(SCc2c(F)cccc2Cl)nc2ccccc2c1=O	6.62	651 nM [rising, full curve, poor fit]	–
O=C(NCc1ccccc1Cl)c1cc([N+](=O)[O-])ccc1Cl	-38.1	1160 nM [falling, partial curve]	1460 nM [falling, partial curve]
O=C(NCc1cccnc1)c1ccc(S(=O)(=O)Nc2ccccc2)cc1	39.8	–	366 nM [rising, full curve]
CN(C)CCCCOc1cccc(Br)c1	-15.1	2310 nM [rising, full curve, poor fit]	103 nM [rising, full curve, poor fit]
Cc1csc(NC(=O)C2CCCN(S(=O)(=O)c3ccc(Br)s3)C2)n1 (stereo not drawn)	–	16400 nM [falling, partial curve]	130 nM [falling, full curve, poor fit]
O=[N+]([O-])c1ccc(/C=N/Nc2ncc(-c3ccccc3)cn2)cc1	35.2	–	–
Cc1cccc(NC(=O)Cn2c(O)c(N=NC(N)=S)c3ccccc32)c1	-1.95	29100 nM [falling, single point]	–
CC(=O)Nc1ccc(S(=O)(=O)NCC(=O)OCC(=O)NNC(=O)c2ccccc2)cc1	-2.02	4610 nM [rising, single point]	–
COc1ccc(-n2c(SCC(=O)N3CCCCC3)nc3ccccc3c2=O)cc1	19.4	–	–
CCC(=O)N1CCN(c2ccc(NC(=S)NC(=O)COc3ccccc3)cc2)CC1	-47	16400 nM [falling, single point]	18400 nM [falling, single point]
COc1ccc(C(=O)N=C2SC3CS(=O)(=O)CC3N2Cc2ccccc2)cc1OC (stereo not drawn)	–	32600 nM [falling, single point]	–

SMILES	cell number change [%]	AC50 [1]	AC50 [2]
CCCC1=C(C(=O)OCC)C(c2ccc(F)cc2)n2ncnc2N1 (stereo not drawn)	37.1	92 nM [falling, full curve, poor fit]	29100 nM [rising, single point]
CN1CCN(/N=C/c2ccc(-c3ccccc3)cc2)CC1	–	517 nM [falling, single point]	–
CC(C)COC(=O)NCC12C=CC(O1)C1C(=O)N(c3ccc(Cl)cc3)C(=O)C12 (stereo not drawn)	–	116 nM [rising, partial curve, poor fit]	517 nM [rising, single point]
O=C(Nc1nc2ccccc2[nH]1)C1CCCC1	-27.2	–	–
Cc1ccccc1NC(=O)CSc1nc(N)c(C#N)cc1C#N	70.8	1160 nM [rising, full curve, poor fit]	259 nM [rising, partial curve]
Cc1ccccc1NC(=S)NC(=O)C1CCCCC1	32.5	920 nM [rising, full curve]	29100 nM [rising, single point]
CCC1CCCCN1C(=O)CCc1nnc(Cc2c[nH]c3ccccc23)o1 (stereo not drawn)	-40.1	6.51 nM [falling, full curve, poor fit]	23100 nM [falling, partial curve]
CCC(=O)N(Cc1ccccc1)c1ccccn1	-31.8	–	651 nM [falling, full curve, poor fit]
COc1cccc(C(=O)N2CCOCC2)c1	-46.4	5170 nM [falling, partial curve]	1840 nM [falling, partial curve, poor fit]
O=[N+]([O-])c1ccc(N/N=C2/CCCCC2c2ccccn2)c([N+](=O)[O-])c1 (stereo not drawn)	5.42	16400 nM [rising, partial curve]	–
Cc1cc(=O)n2nc(N3CCCC(C(=O)NCCCN4CC(C)CC(C)C4)C3)sc2n1 (stereo not drawn)	-21.8	–	–
COc1ccc(-c2cc(C(=O)Nc3c(C)nn(Cc4ccccc4)c3C)no2)cc1	-61.3	820 nM [falling, full curve, poor fit]	29100 nM [falling, single point]
COc1ccc(CCNC(=O)COC(=O)C2COc3ccccc3O2)cc1 (stereo not drawn)	6.45	18400 nM [falling, partial curve, poor fit]	–
CCN(CC)Cc1c(C(=O)OC(C)C)nnn1-c1nonc1N	-19.3	20600 nM [falling, partial curve]	7310 nM [falling, single point]
COC(=O)COc1c(/C=C\c2nc(O)c([N+](=O)[O-])c(=O)[nH]2)cccc1OC	15.6	23100 nM [rising, single point]	–
Cc1cccc(OC(C)C(=O)N/N=C\c2ccncc2)c1 (stereo not drawn)	16.1	4.11 nM [rising, full curve, poor fit]	–
O=C(NCCC1CC1(Cl)Cl)Nc1ccccc1 (stereo not drawn)	12.5	4.61 nM [rising, full curve, poor fit]	–
CCOC(=O)C1(Cc2cccc(F)c2)CCN(C(=O)Cn2cnnn2)CC1	-21.8	–	5.8 nM [falling, full curve, poor fit]
CCCCS/C(=C(/C#N)C(N)=O)c1cc2c([nH]1)CCCC2	-44.8	11600 nM [falling, partial curve]	2910 nM [falling, full curve]
COc1cc(S(=O)(=O)NC(C)C)ccc1Cl	13	6510 nM [falling, single point]	–

Ordered by number of heavy atoms (low to high): part of the list above
SMILES	cell number change [%]	AC50 [1]	AC50 [2]
COc1cccc(Cc2n[nH]c(=S)n2Cc2ccco2)c1	9.81	20600 nM [rising, single point]	–
CCC(=O)N1CCN(c2ccc(NC(=S)NC(=O)COc3ccccc3)cc2)CC1	-47	16400 nM [falling, single point]	18400 nM [falling, single point]
CC(=O)Nc1ccc(S(=O)(=O)NCC(=O)OCC(=O)NNC(=O)c2ccccc2)cc1	-2.02	4610 nM [rising, single point]	–

The list continues.

SMILES	cell number change [%]	AC50 [1]	AC50 [2]
Cc1ccc(C2=[N+]([O-])C(C)N(O)C2(C)C)o1 (stereo not drawn)	–	820 nM [falling, partial curve]	–
CCC(=O)Nc1ccc(NC(=O)c2ccccn2)cn1	–	–	1640 nM [rising, partial curve]
Cc1nc(SCC(=O)NC(=O)NCc2ccco2)nc(C)c1C	7.17	–	–
O=C(CSc1nnc2ccc3ccccc3n12)N1CCOCC1	21.4	1160 nM [rising, partial curve]	–
CSc1nc(NCc2ccco2)c2c3c(sc2n1)CN(C)CC3	0.81	1460 nM [falling, full curve]	–
CC(C)c1nnc(NC(=O)CS(=O)(=O)c2ccccc2)s1	-9.24	–	–
Cc1oc(-c2ccccc2Cl)nc1CS(=O)(=O)CC(=O)NCCc1ccccc1	0.576	1640 nM [rising, partial curve, poor fit]	–
Cc1ccc(-c2nc3ccccc3o2)cc1NC(=O)c1ccc2c(c1)OCO2	–	130 nM [rising, full curve, poor fit]	82 nM [rising, full curve, poor fit]
CCN(Cc1cnn(C)c1)C(=O)c1cc(COc2ccc3c(c2)CCCC3)on1	0.54	29100 nM [rising, single point]	–
CC1CCCC(NC(=O)COC(=O)c2ccccc2[N+](=O)[O-])C1C (stereo not drawn)	18.2	–	6510 nM [rising, single point]
COc1ccc(NC(=O)COc2nsnc2N2CCOCC2)cc1	111	29100 nM [rising, single point]	–
O=C(Cc1cccc(C(F)(F)F)c1)NCC(c1ccco1)N1CCCCC1 (stereo not drawn)	-27	–	–
CCC(=O)c1cn(CC(=O)NCC2CCCO2)c2ccccc12 (stereo not drawn)	-0.705	–	–
COc1ccc(NC(=O)CC2C(=O)N(Cc3ccco3)C(=S)N2C(C)C)cc1 (stereo not drawn)	5.76	–	–
Cc1ccc(Cn2ncc3c(N4CCN(c5ccccc5C)CC4)ncnc32)cc1	–	103 nM [rising, full curve, poor fit]	–
COc1ccccc1C(=O)NCCN=C1NS(=O)(=O)c2ccccc21	1.32	5620 nM [falling, single point]	–
Cc1ccc(NC(=O)CCSc2nnc(C)o2)cc1	6.32	–	–
COc1ccc2nc(NCCCNC(=O)c3cc(OC)c(OC)c(OC)c3)c(C#N)cc2c1	4.76	820 nM [rising, full curve, poor fit]	–
CSc1cccc(N2CC(C(=O)Nc3ccccc3N3CCCC3)CC2=O)c1 (stereo not drawn)	–	–	116 nM [rising, full curve, poor fit]
Cc1cc(NC(=O)COC(=O)CNC(=O)c2cccs2)c([N+](=O)[O-])cc1C	8.32	103 nM [rising, full curve, poor fit]	–
